Assay results published in the supplement of paper PMC10849652.
The list shows a part of the results.

The chains behind the UniProt entries cited, without tags or fusion partners. Where a name states a change or a piece, a line headed by the entry shows the natural chain unless it says otherwise.
UniProt P07384: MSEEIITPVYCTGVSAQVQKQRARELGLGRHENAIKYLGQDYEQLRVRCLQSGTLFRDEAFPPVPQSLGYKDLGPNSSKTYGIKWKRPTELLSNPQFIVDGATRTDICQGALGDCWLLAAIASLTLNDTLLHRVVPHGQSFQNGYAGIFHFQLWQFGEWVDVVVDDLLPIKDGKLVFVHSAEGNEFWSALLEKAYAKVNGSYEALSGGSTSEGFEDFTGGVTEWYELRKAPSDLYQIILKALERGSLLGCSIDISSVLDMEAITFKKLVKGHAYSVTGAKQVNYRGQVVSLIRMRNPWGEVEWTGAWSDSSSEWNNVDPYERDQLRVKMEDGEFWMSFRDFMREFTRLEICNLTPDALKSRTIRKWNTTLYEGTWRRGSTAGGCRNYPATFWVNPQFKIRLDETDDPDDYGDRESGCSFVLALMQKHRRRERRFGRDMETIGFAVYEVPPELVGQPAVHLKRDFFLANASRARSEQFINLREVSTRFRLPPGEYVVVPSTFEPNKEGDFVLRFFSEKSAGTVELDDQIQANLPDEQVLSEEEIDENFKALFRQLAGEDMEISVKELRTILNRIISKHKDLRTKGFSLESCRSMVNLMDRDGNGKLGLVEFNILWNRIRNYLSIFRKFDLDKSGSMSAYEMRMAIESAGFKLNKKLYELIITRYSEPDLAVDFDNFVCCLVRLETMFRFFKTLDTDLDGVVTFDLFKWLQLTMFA
UniProt Q9Y376: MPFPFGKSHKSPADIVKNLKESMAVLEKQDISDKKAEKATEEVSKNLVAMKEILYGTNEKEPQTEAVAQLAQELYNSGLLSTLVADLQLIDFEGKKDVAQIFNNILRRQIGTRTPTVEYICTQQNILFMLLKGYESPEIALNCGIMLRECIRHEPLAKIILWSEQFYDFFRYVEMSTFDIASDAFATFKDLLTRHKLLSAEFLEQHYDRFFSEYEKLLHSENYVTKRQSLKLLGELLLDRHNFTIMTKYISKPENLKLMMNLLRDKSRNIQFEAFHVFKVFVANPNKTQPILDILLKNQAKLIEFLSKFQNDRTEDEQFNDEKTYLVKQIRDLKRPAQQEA
UniProt P47756, whole entry, looked up: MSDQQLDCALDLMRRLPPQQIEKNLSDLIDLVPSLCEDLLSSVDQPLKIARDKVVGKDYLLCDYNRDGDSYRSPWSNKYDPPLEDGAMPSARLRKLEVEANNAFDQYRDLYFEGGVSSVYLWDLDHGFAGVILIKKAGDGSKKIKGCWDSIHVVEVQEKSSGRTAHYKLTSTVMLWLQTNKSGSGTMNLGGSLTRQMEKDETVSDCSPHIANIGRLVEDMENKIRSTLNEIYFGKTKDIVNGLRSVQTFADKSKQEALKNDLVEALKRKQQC
UniProt Q5T5Y3: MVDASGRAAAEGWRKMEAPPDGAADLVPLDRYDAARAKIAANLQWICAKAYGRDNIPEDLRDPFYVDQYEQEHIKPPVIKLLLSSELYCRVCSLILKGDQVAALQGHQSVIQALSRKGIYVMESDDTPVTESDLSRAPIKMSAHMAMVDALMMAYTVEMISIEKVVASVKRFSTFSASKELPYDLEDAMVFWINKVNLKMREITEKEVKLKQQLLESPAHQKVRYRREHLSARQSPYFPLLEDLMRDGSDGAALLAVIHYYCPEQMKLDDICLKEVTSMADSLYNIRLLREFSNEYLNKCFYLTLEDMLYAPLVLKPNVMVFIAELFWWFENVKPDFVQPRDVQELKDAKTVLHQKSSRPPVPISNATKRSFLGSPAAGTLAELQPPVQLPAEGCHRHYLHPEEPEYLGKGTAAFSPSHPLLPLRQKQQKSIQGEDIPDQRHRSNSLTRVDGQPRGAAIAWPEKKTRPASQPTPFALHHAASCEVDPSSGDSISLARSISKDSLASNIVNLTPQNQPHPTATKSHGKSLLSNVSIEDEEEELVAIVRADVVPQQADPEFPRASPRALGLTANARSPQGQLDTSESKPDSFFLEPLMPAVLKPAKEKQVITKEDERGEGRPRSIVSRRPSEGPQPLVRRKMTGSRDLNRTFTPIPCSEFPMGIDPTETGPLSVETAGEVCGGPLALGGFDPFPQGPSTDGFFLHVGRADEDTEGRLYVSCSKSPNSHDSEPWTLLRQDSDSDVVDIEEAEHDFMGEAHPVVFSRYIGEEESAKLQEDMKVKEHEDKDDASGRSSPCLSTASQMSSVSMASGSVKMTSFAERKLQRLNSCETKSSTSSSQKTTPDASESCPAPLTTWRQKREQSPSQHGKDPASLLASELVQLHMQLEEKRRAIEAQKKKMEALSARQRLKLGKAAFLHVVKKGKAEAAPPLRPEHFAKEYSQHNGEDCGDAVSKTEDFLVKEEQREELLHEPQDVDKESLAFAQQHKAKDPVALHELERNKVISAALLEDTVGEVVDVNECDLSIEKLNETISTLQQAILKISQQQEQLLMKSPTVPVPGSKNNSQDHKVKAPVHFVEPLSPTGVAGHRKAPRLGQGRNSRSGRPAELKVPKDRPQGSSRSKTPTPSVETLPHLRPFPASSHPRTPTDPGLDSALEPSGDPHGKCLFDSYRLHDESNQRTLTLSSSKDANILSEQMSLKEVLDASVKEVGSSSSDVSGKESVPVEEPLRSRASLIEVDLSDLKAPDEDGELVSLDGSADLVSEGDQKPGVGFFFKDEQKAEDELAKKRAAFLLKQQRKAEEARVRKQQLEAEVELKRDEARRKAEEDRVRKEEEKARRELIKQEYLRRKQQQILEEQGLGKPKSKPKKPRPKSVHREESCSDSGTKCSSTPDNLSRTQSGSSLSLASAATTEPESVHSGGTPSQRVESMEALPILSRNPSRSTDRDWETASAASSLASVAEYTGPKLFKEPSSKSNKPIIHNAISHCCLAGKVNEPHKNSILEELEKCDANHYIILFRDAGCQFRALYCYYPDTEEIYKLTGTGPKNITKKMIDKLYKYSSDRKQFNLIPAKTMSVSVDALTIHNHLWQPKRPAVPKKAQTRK
UniProt P04003: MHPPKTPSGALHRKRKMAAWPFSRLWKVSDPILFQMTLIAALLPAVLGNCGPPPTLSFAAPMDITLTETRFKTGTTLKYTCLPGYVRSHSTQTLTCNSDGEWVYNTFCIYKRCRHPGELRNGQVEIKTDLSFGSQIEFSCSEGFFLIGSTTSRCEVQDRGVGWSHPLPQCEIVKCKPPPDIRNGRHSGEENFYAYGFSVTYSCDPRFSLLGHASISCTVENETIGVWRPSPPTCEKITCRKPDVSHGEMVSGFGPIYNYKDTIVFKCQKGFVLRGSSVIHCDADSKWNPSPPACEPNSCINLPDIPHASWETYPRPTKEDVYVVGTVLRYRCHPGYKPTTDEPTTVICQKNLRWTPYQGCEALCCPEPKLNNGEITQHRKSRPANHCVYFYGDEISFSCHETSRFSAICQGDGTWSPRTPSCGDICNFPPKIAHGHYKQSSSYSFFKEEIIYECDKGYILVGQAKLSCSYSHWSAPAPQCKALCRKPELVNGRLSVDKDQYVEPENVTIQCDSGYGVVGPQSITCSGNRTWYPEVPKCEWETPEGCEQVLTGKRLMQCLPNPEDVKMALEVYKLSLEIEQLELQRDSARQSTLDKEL
UniProt Q9HB71, whole entry, looked up: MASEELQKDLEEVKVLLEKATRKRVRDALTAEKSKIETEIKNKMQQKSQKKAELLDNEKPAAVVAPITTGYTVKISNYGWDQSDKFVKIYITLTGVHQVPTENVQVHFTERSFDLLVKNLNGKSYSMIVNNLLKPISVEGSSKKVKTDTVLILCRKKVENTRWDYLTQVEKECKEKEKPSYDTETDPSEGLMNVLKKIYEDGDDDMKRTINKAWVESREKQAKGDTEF
UniProt Q6P1X6: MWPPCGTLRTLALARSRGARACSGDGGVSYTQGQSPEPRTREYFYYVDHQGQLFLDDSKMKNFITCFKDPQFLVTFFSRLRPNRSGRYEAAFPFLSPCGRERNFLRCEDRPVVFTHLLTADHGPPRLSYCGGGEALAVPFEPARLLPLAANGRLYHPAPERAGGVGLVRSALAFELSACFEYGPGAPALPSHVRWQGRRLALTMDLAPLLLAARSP
UniProt Q9H3H3: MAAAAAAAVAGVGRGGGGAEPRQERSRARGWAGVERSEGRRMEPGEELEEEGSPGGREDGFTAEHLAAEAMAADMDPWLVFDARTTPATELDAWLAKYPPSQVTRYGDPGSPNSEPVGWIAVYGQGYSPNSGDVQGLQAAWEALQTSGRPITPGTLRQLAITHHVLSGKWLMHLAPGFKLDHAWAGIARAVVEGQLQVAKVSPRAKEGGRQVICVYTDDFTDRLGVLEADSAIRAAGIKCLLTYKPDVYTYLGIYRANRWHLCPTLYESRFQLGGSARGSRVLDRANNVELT
UniProt Q9Y297: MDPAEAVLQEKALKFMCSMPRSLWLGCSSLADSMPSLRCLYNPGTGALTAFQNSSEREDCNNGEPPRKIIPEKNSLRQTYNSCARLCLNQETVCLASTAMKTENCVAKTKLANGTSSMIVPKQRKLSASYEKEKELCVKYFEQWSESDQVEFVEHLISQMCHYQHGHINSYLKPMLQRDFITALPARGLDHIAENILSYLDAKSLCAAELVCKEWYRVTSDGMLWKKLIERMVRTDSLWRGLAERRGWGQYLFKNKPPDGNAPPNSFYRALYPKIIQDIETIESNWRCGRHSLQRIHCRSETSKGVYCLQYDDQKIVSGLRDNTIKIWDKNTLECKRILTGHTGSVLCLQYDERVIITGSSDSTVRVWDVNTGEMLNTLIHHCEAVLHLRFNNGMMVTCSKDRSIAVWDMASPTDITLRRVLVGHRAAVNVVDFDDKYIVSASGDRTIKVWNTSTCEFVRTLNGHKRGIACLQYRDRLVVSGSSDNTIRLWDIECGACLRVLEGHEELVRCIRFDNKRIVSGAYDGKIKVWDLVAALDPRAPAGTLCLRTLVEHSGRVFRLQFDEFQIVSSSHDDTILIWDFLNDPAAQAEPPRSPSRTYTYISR
UniProt Q14444, whole entry, looked up: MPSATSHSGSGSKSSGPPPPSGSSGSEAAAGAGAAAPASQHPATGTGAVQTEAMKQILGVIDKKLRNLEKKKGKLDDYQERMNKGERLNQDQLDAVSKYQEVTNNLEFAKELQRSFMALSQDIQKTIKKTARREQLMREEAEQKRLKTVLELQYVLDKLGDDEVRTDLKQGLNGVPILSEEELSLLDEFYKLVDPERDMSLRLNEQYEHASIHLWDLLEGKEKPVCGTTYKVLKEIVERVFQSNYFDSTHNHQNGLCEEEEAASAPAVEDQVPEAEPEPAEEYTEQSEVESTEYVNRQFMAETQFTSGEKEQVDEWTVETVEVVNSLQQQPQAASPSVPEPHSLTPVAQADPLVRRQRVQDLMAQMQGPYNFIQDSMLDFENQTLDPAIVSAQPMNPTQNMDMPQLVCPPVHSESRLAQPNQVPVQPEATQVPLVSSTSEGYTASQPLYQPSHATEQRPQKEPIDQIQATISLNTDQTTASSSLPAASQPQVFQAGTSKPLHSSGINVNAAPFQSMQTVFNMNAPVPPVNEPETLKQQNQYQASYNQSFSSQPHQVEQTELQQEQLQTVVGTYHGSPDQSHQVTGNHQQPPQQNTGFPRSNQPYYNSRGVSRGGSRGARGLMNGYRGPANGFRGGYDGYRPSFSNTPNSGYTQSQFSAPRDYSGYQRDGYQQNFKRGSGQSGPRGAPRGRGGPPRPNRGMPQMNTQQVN
UniProt Q8WUQ7: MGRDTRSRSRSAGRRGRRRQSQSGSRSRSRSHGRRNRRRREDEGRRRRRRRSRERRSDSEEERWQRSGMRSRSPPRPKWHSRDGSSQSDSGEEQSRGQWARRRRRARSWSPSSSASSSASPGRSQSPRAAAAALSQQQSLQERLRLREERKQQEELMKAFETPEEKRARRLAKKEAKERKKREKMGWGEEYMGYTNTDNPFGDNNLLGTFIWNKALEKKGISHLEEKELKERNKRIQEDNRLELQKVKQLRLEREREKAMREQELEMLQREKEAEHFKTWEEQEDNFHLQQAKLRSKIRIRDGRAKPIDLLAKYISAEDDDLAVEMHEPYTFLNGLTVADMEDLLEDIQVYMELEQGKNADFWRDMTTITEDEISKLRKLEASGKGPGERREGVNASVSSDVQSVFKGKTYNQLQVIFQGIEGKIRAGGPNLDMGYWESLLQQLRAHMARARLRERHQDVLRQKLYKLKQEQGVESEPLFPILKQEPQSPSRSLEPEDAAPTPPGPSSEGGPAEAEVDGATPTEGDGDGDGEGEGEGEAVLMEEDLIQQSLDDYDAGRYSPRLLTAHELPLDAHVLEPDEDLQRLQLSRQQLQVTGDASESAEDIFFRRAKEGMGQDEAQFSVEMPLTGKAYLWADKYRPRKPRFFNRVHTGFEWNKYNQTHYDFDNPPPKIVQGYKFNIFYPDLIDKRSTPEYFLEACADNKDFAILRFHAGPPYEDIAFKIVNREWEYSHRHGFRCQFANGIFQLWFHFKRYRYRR

Assays:
Test in all cases: log2 fold change, soluble protein after heating vs DMSO (PISA); higher = thermal stabilisation; K562 cells, 10 uM, 30 min; active = over 0.2 and 3.5 SD of the protein, either way, in both replicates (recomputed)
[1] = compound: Cc1ccc(NC(=O)c2ccc(CN3CC[C@H](N(C)C)C3)c(C(F)(F)F)c2)cc1Nc1nccc(-c2cncnc2)n1 [bafetinib]
Procedure, shortened: (§1)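 K562 cells at 2×10^6 cells/mL were exposed to 10 μM compound for 30 min, then aliquots were heated for 3 min across 48°C-58°C, pooled, and extracted in PBS containing 0.5% NP-40 at 4°C. The supernatant after 21,000xg for 90 min was taken as soluble protein and measured by TMTpro 16plex LC-MS/MS with channel sums equalised. Thermal stability is reported relative to control samples, with values from duplicates. Fold changes are given on a log2 scale.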

[2] = compound: Cc1cccc(CC(=O)N2CCc3c2ccc(-c2cn(C)c4ncnc(N)c24)c3F)n1
Procedure, shortened: as §1

[3] = compound: Cc1cn(-c2cc(NC(=O)c3ccc(C)c(Nc4nccc(-c5cccnc5)n4)c3)cc(C(F)(F)F)c2)cn1 [nilotinib]
Procedure, shortened: as §1

[4] = compound: Cc1nc(Nc2n[nH]c3c2CN(C(=O)N[C@H](CN(C)C)c2ccccc2)C3(C)C)c2sccc2n1
Procedure, shortened: as §1

[5] = compound: Cc1nc(Nc2ncc(C(=O)Nc3c(C)cccc3Cl)s2)cc(N2CCN(CCO)CC2)n1 [dasatinib]
Procedure, shortened: as §1

[6] = compound: Cc1ncc(-c2ccnc(Nc3ccc(S(C)(=O)=O)cc3)n2)n1C(C)C
Procedure, shortened: as §1

[7] = compound: Cn1cc(-c2ccc3c(c2)CCN3C(=O)Cc2cccc(C(F)(F)F)c2)c2c(N)ncnc21
Procedure, shortened: as §1

[8] = compound: Cn1cc(-c2ccc3nnc(C(F)(F)c4ccc5ncccc5c4)n3n2)cn1
Procedure, shortened: as §1

[9] = compound: Cn1cncc1[C@@](N)(c1ccc(Cl)cc1)c1ccc2c(c1)c(-c1cccc(Cl)c1)cc(=O)n2C [tipifarnib]
Procedure, shortened: as §1

[10] = compound: FC(F)(F)c1ccc(/C=C/c2nc(COc3ccc(CCCCn4ccnn4)cc3)co2)cc1 [mubritinib]
Procedure, shortened: as §1

[11] = compound: NC(=O)Nc1cc(-c2cccc(F)c2)sc1C(=O)N[C@H]1CCCNC1
Procedure, shortened: as §1

[12] = compound: NC(=O)c1cnc(N[C@@H]2CCCC[C@@H]2N)nc1Nc1cccc(-n2nccn2)c1
Procedure, shortened: as §1

[13] = compound: NC1(c2ccc(-c3nc4ccn5c(=O)[nH]nc5c4cc3-c3ccccc3)cc2)CCC1
Procedure, shortened: as §1

[14] = compound: NCC(=O)Nc1ccc(-n2nc(C(F)(F)F)cc2-c2ccc3c(ccc4ccccc43)c2)cc1
Procedure, shortened: as §1

[15] = compound: Nc1ccccc1NC(=O)c1ccc(CNC(=O)OCc2cccnc2)cc1 [entinostat]
Procedure, shortened: as §1

[16] = compound: O=C(CCCCCCC(=O)Nc1ccccc1)NO [vorinostat]
Procedure, shortened: as §1

[17] = compound: O=C(CCCCCCNC(=O)c1cnc(N(c2ccccc2)c2ccccc2Cl)nc1)NO [citarinostat]
Procedure, shortened: as §1

[18] = compound: O=C(O)c1ccc2c(c1)nc(Nc1cccc(Cl)c1)c1ccncc12 [silmitasertib]
Procedure, shortened: as §1

[19] = compound: O=C1NC(=O)C(c2cnc3ccccn23)=C1c1cn2c3c(cc(F)cc13)CN(C(=O)N1CCCCC1)CC2
Procedure, shortened: as §1

[20] = compound: c1cc(OCCN2CCCCC2)cc(-c2n[nH]c3ccc(-c4nnc[nH]4)cc23)c1
Procedure, shortened: as §1

Measured: log2 fold change

CAPN1 (UniProt P07384)
inactive: [1] -0.006 | [2] 0.006 | [3] 0.038 | [4] 0.011 | [5] 0.072 | [6] -0.014 | [7] 0.024 | [8] 0.01 | [9] 0.028 | [10] 0.049 | [11] 0.058 | [12] 0.056 | [13] 0.014 | [14] 0.098 | [15] -0.029 | [16] -0.012 | [17] 0.006 | [18] -0.016 | [19] -0.03 | [20] 0.017

CAB39 (UniProt Q9Y376)
inactive: [1] -0.035 | [2] -0.002 | [3] 0.013 | [4] -0.008 | [5] 0.031 | [6] 0.002 | [7] 0.016 | [8] 0.028 | [9] -0.055 | [10] 0.065 | [11] -0.026 | [12] 0.007 | [13] -0.006 | [14] 0.034 | [15] -0.024 | [16] -0.008 | [17] 0.03 | [18] -0.016 | [19] -0.056 | [20] -0.012

C4A (UniProt P0C0L4)
inactive: [1] -0.316 | [2] -0.018 | [3] 0.027 | [4] 0.136 | [5] -0.044 | [6] 0.217 | [7] 0.163 | [8] 0.052 | [9] -0.087 | [10] -0.193 | [11] -0.024 | [12] -0.016 | [13] -0.129 | [14] 0 | [15] 0.021 | [16] 0.265 | [17] -0.071 | [18] 0.059 | [19] 0.038 | [20] 0.146

CAPZB isoform 2 (UniProt P47756)
inactive: [1] -0.079 | [2] 0.001 | [3] 0.059 | [4] -0.097 | [5] 0.088 | [6] 0.001 | [7] 0.007 | [8] 0.073 | [9] 0.058 | [10] 0.108 | [11] 0 | [12] 0.007 | [13] -0.005 | [14] -0.04 | [15] -0.022 | [16] -0.027 | [17] -0.018 | [18] 0.017 | [19] -0.024 | [20] 0.036

Fetched one by one from the list above (2):
CAPZB isoform 2 (UniProt P47756)
inactive: [1] -0.079 | [2] 0.001 | [3] 0.059 | [4] -0.097 | [5] 0.088 | [6] 0.001 | [7] 0.007 | [8] 0.073 | [9] 0.058 | [10] 0.108 | [11] 0 | [12] 0.007 | [13] -0.005 | [14] -0.04 | [15] -0.022 | [16] -0.027 | [17] -0.018 | [18] 0.017 | [19] -0.024 | [20] 0.036

CAPN1 (UniProt P07384)
inactive: [1] -0.006 | [2] 0.006 | [3] 0.038 | [4] 0.011 | [5] 0.072 | [6] -0.014 | [7] 0.024 | [8] 0.01 | [9] 0.028 | [10] 0.049 | [11] 0.058 | [12] 0.056 | [13] 0.014 | [14] 0.098 | [15] -0.029 | [16] -0.012 | [17] 0.006 | [18] -0.016 | [19] -0.03 | [20] 0.017

Next part:

CAMSAP1 isoform 3 (UniProt Q5T5Y3)
active: [14] -0.466
inactive: [1] -0.019 | [2] -0.05 | [3] 0.043 | [4] -0.061 | [5] -0.144 | [6] -0.055 | [7] 0.091 | [8] -0.021 | [9] -0.132 | [10] -0.005 | [11] 0.124 | [12] -0.048 | [13] -0.172 | [15] -0.29 | [16] -0.078 | [17] 0.045 | [18] 0.064 | [19] -0.028 | [20] -0.013

CARD8 isoform 5 (UniProt Q9Y2G2)
inactive: [1] -0.14 | [2] 0.067 | [3] 0.14 | [4] -0.257 | [5] -0.112 | [6] -0.018 | [8] 0.011 | [9] 0.197 | [10] 0.103 | [11] 0.052 | [12] -0.024 | [13] 0.15 | [14] 0.047 | [15] 0.038 | [16] -0.006 | [17] -0.09 | [18] 0.162 | [19] -0.08 | [20] -0.092

C4BPA (UniProt P04003)
inactive: [1] 0.56 | [2] 0.035 | [3] 0.008 | [4] 0.145 | [6] 0 | [7] 0.192 | [10] 0.04 | [11] -0.19 | [12] 0.137 | [13] 0.242 | [15] -0.276 | [16] -0.092 | [17] 0.068 | [18] -0.098 | [19] 0.379 | [20] 0.216

CACYBP (UniProt Q9HB71)
inactive: [1] -0.039 | [2] 0.015 | [3] -0.029 | [4] -0.017 | [5] -0.014 | [6] -0.003 | [7] 0.02 | [8] 0.002 | [9] 0.021 | [10] 0.037 | [11] -0.021 | [12] -0.079 | [13] -0.062 | [14] -0.051 | [15] 0.012 | [16] 0.004 | [17] -0.002 | [18] -0.036 | [19] -0.093 | [20] -0.004

C8orf82 (UniProt Q6P1X6)
inactive: [1] -0.079 | [2] 0.002 | [3] 0.008 | [4] 0.01 | [5] 0.022 | [6] 0.013 | [7] 0.057 | [8] 0.053 | [9] 0.05 | [10] 0.033 | [11] 0.004 | [12] 0.128 | [13] -0.031 | [14] -0.005 | [15] 0.022 | [16] -0.031 | [17] 0.034 | [18] 0.028 | [19] -0.037 | [20] 0.017

C12orf73 (UniProt Q69YU5)
inactive: [1] -0.125 | [2] -0.041 | [3] 0.013 | [4] -0.056 | [5] 0.064 | [6] -0.041 | [7] 0 | [8] 0.138 | [9] 0.027 | [10] 0.097 | [11] -0.032 | [13] 0.034 | [14] -0.058 | [15] 0.03 | [16] -0.329 | [17] 0.017 | [18] 0.018 | [19] -0.073 | [20] -0.003

C11orf68 (UniProt Q9H3H3)
inactive: [1] -0.083 | [2] 0.017 | [3] -0.046 | [4] -0.09 | [5] -0.06 | [6] -0.028 | [7] 0.023 | [8] -0.011 | [9] -0.05 | [10] 0.028 | [11] -0.004 | [12] -0.033 | [13] -0.019 | [14] -0.041 | [15] -0.015 | [16] 0.024 | [17] 0.029 | [18] -0.026 | [19] -0.065 | [20] 0.028

BTRC (UniProt Q9Y297)
inactive: [1] -0.095 | [2] 0.062 | [3] 0 | [4] 0.038 | [5] -0.138 | [6] -0.012 | [9] 0.116 | [10] 0.158 | [11] 0 | [12] 0.026 | [13] -0.028 | [14] -0.286 | [15] 0.001 | [16] 0.098 | [18] 0.098 | [19] -0.226

CAPRIN1 (UniProt Q14444)
inactive: [1] 0.165 | [2] -0.073 | [3] 0.032 | [4] 0.158 | [5] 0.174 | [6] 0.024 | [7] -0.13 | [8] -0.142 | [9] 0.052 | [10] -0.018 | [11] 0.047 | [12] 0.022 | [13] 0.277 | [14] 0.032 | [15] -0.066 | [16] -0.018 | [17] -0.073 | [18] 0.104 | [19] 0.184 | [20] -0.141

CACTIN isoform 2 (UniProt Q8WUQ7)
inactive: [1] -0.179 | [2] -0.026 | [3] -0.001 | [4] -0.271 | [5] 0.001 | [6] -0.004 | [7] -0.06 | [9] 0.159 | [10] -0.022 | [11] 0.04 | [12] -0.008 | [13] -0.054 | [14] -0.155 | [15] 0.006 | [16] -0.021 | [17] 0 | [18] -0.18 | [19] -0.001 | [20] -0.175

C2CD5 isoform 4 (UniProt Q86YS7)
inactive: [1] -0.06 | [2] -0.006 | [3] -0.032 | [4] 0.035 | [5] -0.144 | [6] -0.039 | [7] 0.075 | [8] 0.018 | [9] 0.014 | [10] 0.07 | [11] -0.111 | [12] -0.013 | [13] -0.099 | [14] 0.041 | [15] 0.003 | [16] 0.01 | [17] -0.033 | [18] -0.031 | [19] -0.029 | [20] -0.014
